In PubChem BioAssay AID1347075 (National Center for Advancing Translational Sciences (NCATS), 2019):
Several values for one entry are separate records, joined by “and”; a condition that tells them apart may be missing. Equal entries are not always repeated. Among all 400,000 compounds or so, about 5,500 (1.4%) were called active. Inconclusive means that the source gave no clear call. Such entries were picked first, then a sample of the others. Calls follow the shape of the dose curve; as a rule, active = well fitted cell-killing curve with a large enough effect; inconclusive = small, poorly fitted or top-dose-only effect, or effect the other way; inactive = flat fitted curve, though single readings scatter. Potencies beside an inconclusive call are fits to weak or partial responses and may not hold up.

experiment: qHTS assay for MDR1-selective chemotherapeutics: Primary screen using the parental adenocarcinoma cell KB-3-1; settings: KB-3-1 viability, CellTiter-Glo ATP luminescence, 72 h; activity change, negative = cytotoxic: at 46.1 µM (top of the series); also: nearly all actives have a fitted effect of over 60% in size
How it was run: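 Cytotoxicity measured as CellTiter-Glo luminescence after 72 h at 37 C. Compound titrations were pinned onto drug-naive KB-3-1 parental adenocarcinoma cells grown in DMEM with 10% FBS, and normalized data fitted to concentration-response curves.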
% is scaled to controls: 0 for no effect and ±100 for the full control effect; potency is read from the fitted curve at half-maximal effect.

Row | Structure (SMILES) | Potency | activity change, negative = cytotoxic
1 | CCNC(=S)N1CCN(c2ccc([N+](=O)[O-])cc2)CC1 | inactive | 
2 | CC(Oc1ccccc1)C(=O)Nc1ccc(C(=O)OCc2cc(=O)n3nc(C4CC4)sc3n2)cc1 (configuration not stated) | inactive | 
3 | Cn1c(-c2c(N)n(CCc3ccccc3)c3nc4ccccc4nc23)nc2ccccc21 | inconclusive: 29.1 µM [cytotoxic, single point] | 
4 | O=C(NCc1ccccc1)C1c2ccccc2OCC(=O)N1Cc1ccccc1 (configuration not stated) |  | inconclusive: 19.9%
5 | COc1ccc(NC(=O)c2sc3nc(N4CCOCC4)c4c(c3c2N)CCCC4)cc1 | inactive | 
6 | CC(C)N(C(=O)[C@H]1C[C@H](CC(=O)NC(C)(C)C)C(=O)N2CCc3c([nH]c4cc(-c5ccco5)ccc34)[C@]12C)C(C)C | inconclusive: 23.1 µM [cytotoxic, single point] | 
7 | CCC1(c2ccc(Cl)cc2)NC(=S)N(c2ccccc2)N1 (configuration not stated) | inactive | 
8 | O=C1C=C(c2ccc3ncccc3c2)C[C@@H](c2ccc3c(c2)OCO3)C1 | inconclusive: 0.82 µM [cytotoxic, full curve, poor fit] | 
9 | Cc1cc(C)cc(Cn2cc(CN3CC(N4CCN(Cc5ccccc5F)CC4)CS3(=O)=O)nn2)c1 (configuration not stated) | inconclusive: 16.4 µM [cytotoxic, single point] | 
10 | CN(C)/N=C/c1ccc(Sc2ccccc2[N+](=O)[O-])o1 | inactive | 
11 | CCOc1ccc2ccccc2c1/C=N/NC(=O)CNC(=O)c1ccccc1O | inconclusive: 25.9 µM [rising, single point] | 
12 | CCOC(=O)CCc1c(C)c2ccc(OCC(=O)N(CC)CC)c(C)c2oc1=O | inactive | 
13 | COc1cc(NC(=O)c2sc3ncn(CC(=O)N4CCC(C)CC4)c(=O)c3c2C)cc(OC)c1OC | inconclusive: 20.6 µM [cytotoxic, single point] | 
14 | O=C(COC(=O)c1ccccn1)Nc1ccc(S(=O)(=O)N2CCOCC2)cc1 | inactive | 
15 | CN(CC(=O)Nc1ccc(F)cc1)C(=O)COc1ccccc1Cc1ccccc1 | inconclusive: 16.4 µM [cytotoxic, partial curve, poor fit] | 
16 | O=C(Nc1nccs1)c1ccc(COc2c(F)c(F)cc(F)c2F)cc1 | inconclusive: 18.4 µM [cytotoxic, single point] | 
17 | Cc1ccccc1CN(C)CC(=O)Nc1c(C)cccc1C(C)C | inconclusive: 29.1 µM [cytotoxic, single point] | 
18 | Cc1cc[n+](CC#N)cc1 | inconclusive: 9.2 µM [rising, partial curve] | 
19 | Cc1coc2c1c(C)cc1oc(=O)c(CC(=O)N[C@@H](C)C(=O)O)c(C)c12 | inconclusive: 1.3 µM [rising, partial curve] | 
20 | NCCNc1ccc(C(=O)N2c3ccccc3Sc3ccccc32)cc1[N+](=O)[O-] | inconclusive: 18.4 µM [cytotoxic, single point] | 
21 | CC1CCN(CCCCOc2ccccc2-c2ccccc2)CC1 | inconclusive: 29.1 µM [cytotoxic, single point] | 
22 | Cc1cc(C)c2c(n1)nn1c(C)c(CCC(=O)Nc3cccc(C)c3C)c(C)nc21 | inactive | 
23 | COc1ccc(C2=NOC(Cn3nc(C(=O)NCC4CC4)cc3-c3ccccc3)C2)cc1 (configuration not stated) | inactive | 

3 entries out of the list, sorted by molar mass, descending:
Row | Structure (SMILES) | Potency | activity change, negative = cytotoxic
23 | COc1ccc(C2=NOC(Cn3nc(C(=O)NCC4CC4)cc3-c3ccccc3)C2)cc1 (configuration not stated) | inactive | 
22 | Cc1cc(C)c2c(n1)nn1c(C)c(CCC(=O)Nc3cccc(C)c3C)c(C)nc21 | inactive | 
17 | Cc1ccccc1CN(C)CC(=O)Nc1c(C)cccc1C(C)C | inconclusive: 29.1 µM [cytotoxic, single point] | 

(next part)

Row | Structure (SMILES) | Potency | activity change, negative = cytotoxic
24 | CCOc1ccc(S(=O)(=O)NCCC(=O)N(C)Cc2cccs2)cc1 | inactive | 
25 | Cc1ccc(-c2nc3cccc(C)n3c2Nc2ccc3c(c2)OCCO3)cc1 | inconclusive: 29.1 µM [cytotoxic, single point] | 
26 | CCC(=O)N1CCCc2cc(S(=O)(=O)N3CCCc4ccccc43)ccc21 | inconclusive: 29.1 µM [cytotoxic, single point] | 
27 | O=[N+]([O-])c1ccc2n[nH]nc2c1 | inconclusive: 29.1 µM [rising, single point] | 
28 | COC(=O)Cn1nc(-c2ccc(C)c(S(=O)(=O)N(C)C)c2)c2ccccc2c1=O | inactive | 
29 | NC(=O)Cn1ccc(O)c(Cc2ccc(Cl)cc2Cl)c1=O | inactive | 
30 | Cc1cc(C)n(-c2nc(NCc3cccnc3)c3c4c(sc3n2)COC(C)(C)C4)n1 | inconclusive: 14.6 µM [cytotoxic, partial curve, poor fit] | 
31 | CCc1nn(CC(=O)NCc2ccccc2)c(=O)c2cccn12 | inactive | 
32 | CCC(C)(C(=O)NC1CCCCC1)N(Cc1cccs1)C(=O)CC1NC(=O)NC1=O (configuration not stated) | inconclusive: 11.6 µM [cytotoxic, full curve, poor fit] | 
33 | CC(=O)c1ccc(-c2ccc(C(=O)N3CCC(C(N)=O)CC3)o2)cc1 | inconclusive: 3.66 µM [rising, full curve, poor fit] | 
34 | Cc1ccc(S(=O)(=O)N2CC3(O)CN(C(=O)OC(C)C)N(C(=O)OC(C)C)CC3(OC(=O)NC3CCCC3)C2)cc1 (configuration not stated) |  | inconclusive: 31.2%
35 | CCN(CC)CCn1c(=N)n(CC(O)COc2cccc(C)c2)c2ccccc21 (configuration not stated) | inconclusive: 29.1 µM [cytotoxic, single point] | 
36 | CCc1cccc(NC(=O)CSc2ncc3c(n2)-c2cc(Cl)ccc2N(C)S3(=O)=O)c1 | inactive | 
37 | COc1cc(NC(=O)c2cc(-c3cccc(O)c3)on2)cc(OC)c1OC | active: 11.6 µM | 
38 | CCOC(=O)c1ccc(N2C(=O)c3[nH]nc(-c4ccc(OC)cc4)c3C2c2cccc(O)c2)cc1 (configuration not stated) | inconclusive: 29.1 µM [cytotoxic, single point] | 
39 | COc1cccc(C(=O)Nc2ccc(C3CC3(Cl)Cl)cc2)c1 (configuration not stated) | inconclusive: 14.6 µM [cytotoxic, partial curve, poor fit] | 
40 | O=C(Cn1cnc2cc([N+](=O)[O-])ccc2c1=O)Nc1cccc(S(=O)(=O)N2CCCCC2)c1 | inconclusive: 10.3 µM [cytotoxic, partial curve, poor fit] | 
41 | OCCOC1CCCc2oc(-c3ccccc3)c(C#CC3(O)CCCCC3)c21 (configuration not stated) | inconclusive: 18.4 µM [cytotoxic, single point] | 
42 | COc1ccccc1NC(=O)Cn1nnc(C(=O)NCc2cccs2)c1N | active: 2.06 µM and inconclusive: 731 nM [cytotoxic, full curve, poor fit] | 
43 | CCOc1ccccc1NC(=O)C1CCN(C(=O)c2cccs2)CC1 | inactive | 
44 | O=C(COc1ccccc1Br)N1CCN(c2ccccc2)CC1 | inactive | 
45 | c1ccc(CNc2ncnc3ccccc23)cc1 | inconclusive: 0.731 µM [cytotoxic, full curve] | 
46 | COc1ccc(/C=C2\S/C(=N/S(=O)(=O)c3cccs3)NC2=O)cc1 | inconclusive: 20.6 µM [cytotoxic, single point] | 

Row | Structure (SMILES) | Potency | activity change, negative = cytotoxic
47 | CC(=O)Nc1nc(-c2ccc(Br)s2)cs1 | inactive | 
48 | N=c1n(Cc2ccccc2)c2ccccc2n1CC(O)COc1ccccc1 (configuration not stated) | active: 20.6 µM | 
49 | COc1ccccc1C(=O)NCc1ccco1 | inconclusive: 16.4 µM [cytotoxic, partial curve, poor fit] | 
50 | O=c1[nH]c(=S)[nH]c2c1C(C1CCCCC1)OC(C1CCCCC1)C2 (configuration not stated) | inconclusive: 29.1 µM [cytotoxic, single point] | 
51 | CCCn1c(SCC(=O)N2c3ccccc3Sc3ccccc32)nc2ccccc21 | inconclusive: 29.1 µM [cytotoxic, single point] | 
52 | CCC(C)NC(=O)CCSc1nc(-c2ccc3c(c2)OCO3)cc(C(F)(F)F)n1 (configuration not stated) | inactive | 
53 | CC1CN(C(=O)c2cc3ccccc3cc2O)CC(C)O1 (configuration not stated) | inconclusive: 2.59 µM [rising, full curve, poor fit] | 
54 | COc1cc(OC)cc(C2=Cc3ccc(OC)cc3C(CC(C)=O)N2c2ccc(C#CC3(N)CCCCC3)cc2)c1 (configuration not stated) | inconclusive: 29.1 µM [cytotoxic, single point] | 
55 | COc1cc(C(=O)NCc2ccc3c(c2)CCN3C(=O)c2ccc(Cl)cc2)cc(OC)c1OC | inactive | 
56 | CC(C)Oc1ccc(CNC(=S)Nc2ccccc2)cc1Cl | inactive | 
57 | Cc1cccc(Oc2cc([N+](=O)[O-])cc3c2C(=O)Nc2ccccc2O3)c1 | inconclusive: 18.4 µM [cytotoxic, partial curve, poor fit] | 
58 | COC(=O)[C@]12CCCCC=C1N(Cc1cccc3ccccc13)C(=O)[C@H](CC(=O)NCCC(C)C)C2 | inconclusive: 23.1 µM [cytotoxic, single point] | 
59 | C#CCOCCOCCOCCNc1nc(N2CCN(C(=O)CCCCCCCCCCNC(=O)[C@H](CCCCN)n3cc(C)nn3)CC2)nc(N2CCN(C(=O)CCCCCCCCCCNC(=O)[C@H](CCCN=C(N)N)n3cc(C[C@@H](C)CC)nn3)CC2)n1 | inconclusive: 23.1 µM [cytotoxic, single point] | 
60 | NC(c1csc(NC(=O)Nc2ccccc2Oc2ccccc2)n1)c1ccccc1Cl (configuration not stated) | inconclusive: 29.1 µM [cytotoxic, single point] | 
61 | O=c1c2ccccc2sn1-c1cccc(Cl)c1 | inconclusive: 29.1 µM [cytotoxic, single point] | 
62 | CC(=O)c1ccc(NC(=O)c2ccc(-c3nc(CSc4ccc(C)cc4)c(C)o3)cc2)cc1 | inconclusive: 5.17 µM [cytotoxic, full curve] | 
63 | CCCCCOc1ccc(C(=O)C(c2ccccc2)N2CCOCC2)cc1 (configuration not stated) | inactive | 
64 | COc1ccc(NC(=O)C2CCC(C(C)(C)C)CC2)cc1S(=O)(=O)N1CCOCC1 (configuration not stated) | inconclusive: 0.231 µM [rising, full curve] | 
65 | Cc1cc(C(=O)CCl)c(C)n1CCc1ccc(F)cc1 | inconclusive: 29.1 µM [cytotoxic, single point] | 
66 | CC(=O)c1cccc(NC(=O)CN2C(=O)NC(C)(C)C2=O)c1 | inconclusive: 10.3 µM [rising, partial curve] | 
67 | COC(CNC(=O)C1CCN(C(=O)c2cc3oc(C)cc3n2Cc2c(F)cccc2Cl)CC1)OC | inconclusive: 18.4 µM [cytotoxic, single point] | 
